Earlier results on 2 compounds are cited in article PMC10056008 (Pharmaceuticals, 2023).

For the series the following is noted: co-administration of verapamil; cited from earlier work.

For `CC(C)(C(=O)O)c1ccc([C@H](O)CCCN2CCC(C(O)(c3ccccc3)c3ccccc3)CC2)cc1` [R-fexofenadine], the “systemic exposure elevated by verapamil” value is listed as 234%. As to `CC(C)(C(=O)O)c1ccc(C(O)CCCN2CCC(C(O)(c3ccccc3)c3ccccc3)CC2)cc1` (centres unmarked) [S-fexofenadine], the “systemic exposure elevated by verapamil” value is reported as 261%.
